Reference: publication PMC9257321
These are yes or no findings as the source states them, for the method shown. Binding seen in cells or lysates may run through a third protein.

By UniProt entry, the sequences of proteins in these tests, tags left out.
UniProt Q99814: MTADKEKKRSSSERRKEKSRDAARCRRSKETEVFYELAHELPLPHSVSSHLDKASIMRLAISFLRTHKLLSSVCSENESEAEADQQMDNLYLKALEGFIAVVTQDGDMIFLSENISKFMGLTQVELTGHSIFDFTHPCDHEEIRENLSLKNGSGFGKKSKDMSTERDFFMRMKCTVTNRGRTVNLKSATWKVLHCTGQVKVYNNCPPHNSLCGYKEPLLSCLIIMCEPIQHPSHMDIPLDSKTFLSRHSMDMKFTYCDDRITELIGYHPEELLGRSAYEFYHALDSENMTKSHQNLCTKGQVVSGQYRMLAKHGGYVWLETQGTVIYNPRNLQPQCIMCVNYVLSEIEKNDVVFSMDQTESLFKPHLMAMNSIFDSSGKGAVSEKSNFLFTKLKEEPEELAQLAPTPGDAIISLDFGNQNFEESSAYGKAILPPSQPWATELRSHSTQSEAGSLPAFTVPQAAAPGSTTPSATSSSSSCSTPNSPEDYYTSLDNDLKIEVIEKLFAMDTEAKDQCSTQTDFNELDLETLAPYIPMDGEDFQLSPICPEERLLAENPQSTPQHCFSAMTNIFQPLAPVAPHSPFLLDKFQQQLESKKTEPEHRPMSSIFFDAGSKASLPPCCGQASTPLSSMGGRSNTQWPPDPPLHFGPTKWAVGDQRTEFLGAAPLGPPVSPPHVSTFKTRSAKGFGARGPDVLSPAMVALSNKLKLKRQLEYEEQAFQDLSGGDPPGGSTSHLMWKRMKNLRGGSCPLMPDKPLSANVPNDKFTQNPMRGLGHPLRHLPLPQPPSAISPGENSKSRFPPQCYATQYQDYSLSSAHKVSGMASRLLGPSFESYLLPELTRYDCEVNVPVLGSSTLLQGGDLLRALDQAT

Biological target: HIF-2α (human (endogenous in 786-O)) (UniProt Q99814)
Test: co-IP; lysates of 786-O-Vector and 786-O-MIIP cells immunoprecipitated with anti-HIF-2α antibody and protein A + G Sepharose beads; Western blot for RACK1, HSP90 and MIIP

binding: no binding
B1: migration and invasion inhibitory protein (MIIP) (protein, UniProt Q5JXC2 1-388)
chain: MVEAEELAQLRLLNLELLRQLWVGQDAVRRSVARAASESSLESSSSYNSETPSTPETSSTSLSTSCPRGRSSVWGPPDACRGDLRDVARSGVASLPPAKCQHQESLGRPRPHSAPSLGTSSLRDPEPSGRLGDPGPQEAQTPRSILAQQSKLSKPRVTFSEESAVPKRSWRLRPYLGYDWIAGSLDTSSSITSQPEAFFSKLQEFRETNKEECICSHPEPQLPGLRESSGSGVEEDHECVYCYRVNRRLFPVPVDPGTPCRLCRTPRDQQGPGTLAQPAHVRVSIPLSILEPPHRYHIHRRKSFDASDTLALPRHCLLGWDIFPPKSEKSSAPRNLDLWSSVSAEAQHQKLSGTSSPFHPASPMQMLPPTPTWSVPQVPRPHVPRQKP
